One molecule from patent publication US6495584B1, “Use of 3-(1H-imidazol-4-ylmethyl)-indan-5-ol in the manufacture of a medicament for intraspinal, intrathecal or epidural administration” (Orion Corporation, priority 1998, dated 2002) can be followed below.

This data set relates to rat. Kind of data set: Tail-flick analgesia test. It is filed as in vivo. How it is done:
There were 8 rats in each group tested.
Tail-flick analgesia was tested by a tail-flick analgesy meter (Ugo Basile, Italy). The analgesia testing was done no earlier than four days after the catheterization. The rats were always habituated to the immobilization chambers that were used in the analgesia measurements. The tail of the rat was outside the chamber and it was placed on the heating spot of the apparatus. Thus, the hot infrared beam would hit the tail. When the rat reacted and moved the tail away from the beam, the analgesy meter automatically measured the latency of the tail-withdrawal. The tail-flick measurement was always repeated three times, one after another, to diminish the effect of a possible unspecific reaction. […] The maximal latency (cut-off time) was set to 5 seconds in order to prevent burns of the tail. The predrug tail-flick latencies were first measured, and then the rats were administered 10 μl of the drug solution by a Hamilton syringe. Immediately thereafter the catheter was washed with 10 μl of sterile saline, and the tip was sealed by a lighter. […]
The tail-flick analgesia data were represented as MPE% values (maximum possible effect %). The tail-flick latencies (mean of three measurements) were calculated as MPE% values as follows: (postdrug latency−predrug latency)/(cut-off time−predrug latency)×100%. […]

With `Oc1ccc2c(c1)C(Cc1c[nH]cn1)CC2` (centres unmarked) [Compound A, 3-(1H-imidazol-4-ylmethyl)-indan-5-ol], under “iv dose relative to it dose”, the “Dose needed for the analgesic effect, intravenous versus intrathecal” value is “at least 14 times”. Moreover, where the note is “sc dose relative to it dose”, the “Dose needed for the analgesic effect, subcutaneous versus intrathecal” value is given as “at least 142 times”.
